Laboratory results: PubChem BioAssay AID1347075 (National Center for Advancing Translational Sciences (NCATS), 2019)
In all, about 400,000 compounds went through this assay and about 5,500 (1.4%) were called active. Inconclusive results, whose numbers are uncertain, are shown with a selection of clear calls. Calls come from the whole dose curve; as a rule, active = well fitted cell-killing curve with a large enough effect; inconclusive = small, poorly fitted or top-dose-only effect, or effect the other way; inactive = flat fitted curve, though single readings scatter. Potencies beside an inconclusive call are fits to weak or partial responses and may not hold up.

Assay: qHTS assay for MDR1-selective chemotherapeutics: Primary screen using the parental adenocarcinoma cell KB-3-1; note: nearly all actives have a fitted effect of over 60% in size
Details: KB-3-1 viability, CellTiter-Glo ATP luminescence, 72 h; activity change, negative = cytotoxic: at 46.1 µM (top of the series)
How it was run: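 Cells are dispensed, compounds pinned in, plates held at 37 °C for 72 h, then CellTiter-Glo is added and luminescence read after 10 minutes. Cell line: parental KB-3-1 in phenol-red-free DMEM, 10% FBS.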
% is set by controls: 0 for no effect and ±100 for the full control effect; potency is the fitted concentration of half-maximal effect.

Compound | Potency | activity change, negative = cytotoxic
COC(=O)c1cc(=O)n(Cc2ccc3c(c2)OCO3)c(=Nc2ccc(F)c(Cl)c2)s1 | inconclusive: 3.26 µM [cytotoxic, full curve] | 
CC(=O)C(C(c1ccccc1)c1c[nH]c2ccccc12)[N+](=O)[O-] (stereo unspecified) | active: 7.31 µM | 
O=C(OCC(=O)N1CCOCC1)c1cc(S(=O)(=O)N2CCOCC2)c(Cl)cc1Cl |  | inactive: 5.4%
Cc1c(Br)c([N+](=O)[O-])nn1CC(=O)Nc1sc2c(c1C(=O)OC(C)C)CCCC2 | inconclusive: 20.6 µM [cytotoxic, partial curve, poor fit] | 
COc1ccc2cc([C@H](C)C(=O)N(C)Cc3ccccc3N3CCCC3)ccc2c1 |  | inactive: -14.7%
COc1cccc(CN(Cc2ccco2)C(c2ccc(F)cc2)c2nnnn2C(C)(C)C)c1 (stereo unspecified) | inconclusive: 18.4 µM [cytotoxic, single point] | 
CCn1nnnc1SCC(=O)c1cccc(OC)c1 |  | inactive: -4.58%
N#C/C(=C\Nc1ccc2c(c1)OCCO2)c1nc(-c2ccccc2)cs1 |  | inactive: 1.55%
COc1cc2cc(CN(CCN3CCOCC3)C(=O)Nc3ccc(F)cc3)c(=O)[nH]c2cc1OC | inconclusive: 23.1 µM [cytotoxic, single point] | 
CC1(C(=O)Nc2ccc3c(c2)OCCO3)CCN1C(=O)Cc1ccc(-c2ccccc2)cc1 (stereo unspecified) | inconclusive: 18.4 µM [cytotoxic, single point] | 
CC(C)c1nnc(SCC(=O)NC2CCCC2)n1C |  | inactive: 5.19%
O=C(N/N=C/C(Br)=C/c1ccccc1)c1cc(-c2ccco2)[nH]n1 | inconclusive: 20.6 µM [cytotoxic, single point] | 
Cc1ccc(CNC(=O)C(=O)NCC(c2cccs2)S(=O)(=O)c2cccs2)cc1 (stereo unspecified) |  | inactive: 0.455%
CCCCN(Cc1nc2ccccc2c(=O)[nH]1)C(=O)COc1ccc(F)cc1Cl |  | inactive: -0.449%
CC1CCCN(c2ncnc3c2nc2n3CCCCC2)C1 (stereo unspecified) |  | inactive: 1.75%
O=C(c1cccc(C(=O)N2CCN(c3ccc(F)cc3)CC2)c1)N1CCN(c2ccc(F)cc2)CC1 | inconclusive: 29.1 µM [cytotoxic, single point] | 
CCSc1nc2c([nH]c3ccccc32)c(=O)n1-c1ccc(OC)cc1 |  | inactive: 18%
CC(=O)CCS(=O)(=O)c1ccc(Oc2ccc(S(=O)(=O)CCC(C)=O)cc2)cc1 | inconclusive: 29.1 µM [cytotoxic, single point] | 
CCOC(=O)c1[nH]c2c(c1Cc1ccccc1)C(=O)CC(c1ccc(OC)cc1)C2 (stereo unspecified) |  | inactive: -19.1%
O=C(/C=C/c1cccc(Cl)c1)c1nc2ccccc2[nH]1 | inconclusive: 29.1 µM [cytotoxic, single point] | 
COc1ccc(-c2cc(CCC(=O)N3CCN(c4cc(C)ccc4C)CC3)[nH]n2)cc1 |  | inactive: -12.3%
Cc1ccccc1Cn1c(=O)n(CCCCC(=O)NCCc2ccccc2)c(=O)c2ccccc21 |  | inactive: 0.239%
OC1CCCN(CC(O)COc2ccc(-c3ccccc3)cc2)C1 (stereo unspecified) |  | inactive: 11.4%
CCOC(=O)c1cc(-c2ccc(OC)cc2)nn1-c1ccc(C(=O)O)cc1 |  | inactive: 11.7%

Compound | Potency | activity change, negative = cytotoxic
Cc1cc(=O)oc2cc(OCC(=O)Nc3ccc(F)cc3F)ccc12 |  | inconclusive: 17.7%
O=C(O)C1CCCN1S(=O)(=O)c1ccc(F)cc1 (stereo unspecified) |  | inactive: 1.46%
Cc1ccc(N2C(=O)c3n[nH]c(C)c3C2c2ccc(C(C)C)cc2)cc1 (stereo unspecified) | inconclusive: 20.6 µM [cytotoxic, single point] | 
CCCCS(=O)(=O)N1CCN(S(=O)(=O)c2cccs2)CC1 | inconclusive: 18.4 µM [rising, partial curve] | 
CC1CCc2c(sc(NC(=O)c3ccco3)c2C(=O)O)C1 (stereo unspecified) | inconclusive: 23.1 µM [cytotoxic, single point] | 
O=C1NC2CCCCC2C(=O)N1OS(=O)(=O)c1ccccc1 (stereo unspecified) | inconclusive: 32.6 µM [cytotoxic, single point] | 
CC(=O)c1ccc(N/C=C\C(=O)c2ccc(C)cc2)cc1 |  | inactive: 18.1%
N#Cc1ccc(S(=O)(=O)N2CCN(c3nc(-c4cccs4)nc4ccccc34)CC2)cc1 | inconclusive: 29.1 µM [rising, single point] | 
CCCCN(CCCC)c1ccc(/C=C/c2ccnc3ccccc23)cc1 |  | inactive: -0.503%
COc1ccc(NC(=O)c2c(Cl)n(C)c3ccccc23)cc1 | active: 2.91 µM | 
CCN(C(=O)COC(=O)C1CCC(C(C)(C)C)CC1)c1c(N)n(Cc2ccccc2)c(=O)[nH]c1=O (stereo unspecified) | inconclusive: 20.6 µM [cytotoxic, single point] | 
O=c1c2cc3c(cc2n(Cc2cccc(F)c2)c(=O)n1Cc1nc(-c2ccccc2)no1)OCO3 |  | inactive: -0.813%
COC(=O)[C@]12CCCCC=C1N(Cc1ccc(Cl)cc1Cl)C(=O)[C@H](CC(=O)N1CCCCC1)C2 |  | inactive: -25.5%
COC(=O)c1ccc(N2C(c3cc(OC)cc(OC)c3)=Cc3ccc(-c4ccc(C(N)=O)cc4)cc3C2CC(=O)C2CC2)cc1 (stereo unspecified) | inconclusive: 14.6 µM [cytotoxic, single point] | 
COCCN1C(=O)c2[nH]nc(-c3c(C)cc(C)cc3O)c2C1c1cccc(O)c1 (stereo unspecified) |  | inactive: -11.3%
COc1ccc(S(=O)(=O)N(CCc2ccccc2)CC(=O)NCc2ccccc2)cc1OC | inconclusive: 29.1 µM [rising, partial curve, poor fit] | 
CCc1ccc(NCc2cc3ccc(OC)cc3n(CC(=O)Nc3cccc(Cl)c3C)c2=O)cc1 | inconclusive: 32.6 µM [cytotoxic, single point] | 
COc1ccc(NC(=S)NCc2ccccc2)c(OC)c1 |  | inactive: 0.102%
COc1ccc(C(=O)NC(=S)N(Cc2ccccc2)Cc2ccccc2)cc1 | inconclusive: 29.1 µM [cytotoxic, single point] | 
CC(C)(C)c1ccc(-n2ncc3c2CCCC3NC(=O)C2=NNC(=O)CC2)cc1 (stereo unspecified) | inconclusive: 32.6 µM [cytotoxic, single point] | 
CCc1ccccc1N1C(=O)N(Cc2cccc(Cl)c2)c2ccccc2S1(=O)=O | inconclusive: 23.1 µM [cytotoxic, single point] | 
CCOc1ccc(C(=O)OCC(=O)NCCNC(=O)COC(=O)c2ccc(OCC)cc2)cc1 |  | inactive: 9.33%
Nc1nnc(CCCCCc2nnc(N)s2)s1 |  | inactive: 2.42%
O=C(Nc1sc2c(c1C(=O)O)CCC2)c1ccccc1 | inconclusive: 29.1 µM [cytotoxic, single point] | 

Record cards (already shown).
O=C(N/N=C/C(Br)=C/c1ccccc1)c1cc(-c2ccco2)[nH]n1 in the list: Potency: inconclusive: 20.6 µM [cytotoxic, single point]
O=C(Nc1sc2c(c1C(=O)O)CCC2)c1ccccc1 in the list: Potency: inconclusive: 29.1 µM [cytotoxic, single point]
Nc1nnc(CCCCCc2nnc(N)s2)s1 in the list: activity change, negative = cytotoxic: inactive: 2.42%
CCc1ccc(NCc2cc3ccc(OC)cc3n(CC(=O)Nc3cccc(Cl)c3C)c2=O)cc1 in the list: Potency: inconclusive: 32.6 µM [cytotoxic, single point]

More results.

Compound | Potency | activity change, negative = cytotoxic
c1ccc(Cc2ccc(OCCn3ccnc3)cc2)cc1 | inconclusive: 10.3 µM [cytotoxic, partial curve, poor fit] | 
CC1CN(S(=O)(=O)c2cc(C(=O)NC(C)c3cccnc3)ccc2Cl)CC(C)O1 (stereo unspecified) |  | inactive: 12.8%
CCCCN(C(=O)c1ccc(N2CCCC2=O)cc1)c1c(N)n(CCC)c(=O)[nH]c1=O | inconclusive: 29.1 µM [cytotoxic, single point] | 
NC(N)=NCc1cccc(I)c1 |  | inactive: -9.58%
O=S(=O)(c1cccc(C(F)(F)F)c1)N1CCN(CC(O)COCc2ccccc2)CC1 (stereo unspecified) |  | inactive: 5.61%
S=C(NCc1ccncc1)Nc1cccc(Cl)c1 |  | inactive: 2.72%
Cc1cccn2c(=O)c(/C=C(\C#N)C(=O)NC3CCS(=O)(=O)C3)c(Oc3ccc(F)cc3)nc12 (stereo unspecified) | inconclusive: 11.6 µM [cytotoxic, partial curve, poor fit] | 
COc1cccc(C(=O)N2CCC(c3nc4ccccc4s3)CC2)c1 | inconclusive: 20.6 µM [cytotoxic, single point] | 
COc1ccc(NC(=O)C2CC(c3ccc(Cl)cc3)=NO2)cc1 (stereo unspecified) |  | inactive: 4.48%
CC(C)CCn1nc(C(=O)Nc2nc3c(s2)CCCC3)c2ccccc2c1=O | inconclusive: 20.6 µM [cytotoxic, partial curve, poor fit] | 
O=C(Oc1ccc(N(C(=O)c2ccncc2)S(=O)(=O)c2cccs2)cc1)c1ccncc1 |  | inactive: 2.87%
Cc1ccc(N(CC(=O)Nc2cccc(N(C)S(C)(=O)=O)c2)S(C)(=O)=O)cc1 | inconclusive: 18.4 µM [cytotoxic, single point] | 
Cc1ccc(C(=O)Nc2nnc(SCc3cc(=O)c4c(C)ccc(C)c4[nH]3)s2)cc1 | inconclusive: 29.1 µM [cytotoxic, single point] | 
Cc1ccc(S(=O)(=O)N2CCC(=O)N(C(COCc3ccc(C(F)(F)F)cc3)C(C)C)CC2)cc1 (stereo unspecified) | inconclusive: 11.6 µM [cytotoxic, partial curve] | 
COc1ccc(CC(=O)N/N=C/c2cc([N+](=O)[O-])cc(Br)c2O)cc1 | inconclusive: 29.1 µM [cytotoxic, single point] | 
Cc1ccc(C)c(Cn2c(=O)n(CCCC(=O)NCc3ccco3)c(=O)c3sccc32)c1 | active: 5.8 µM | 
CCn1c(=O)n(CC)c2cc(N3CCCC3)c(NC(=O)c3c(F)cccc3F)cc21 | inconclusive: 3.26 µM [cytotoxic, partial curve, poor fit] | 
COc1cccc(C2CC(=O)Nc3cc4c(cc32)CCC4)c1 (stereo unspecified) | active: 7.31 µM | 
O=C(Nc1nccs1)c1ccc(COc2ccccc2Br)o1 | inconclusive: 18.4 µM [cytotoxic, single point] | 
O=C(O)C1=C/C(=C/C=[N+]2c3cc(O)c(O[C@H]4OC(CO)[C@@H](O)[C@@H](O)[C@@H]4O)cc3C[C@@H]2C(=O)[O-])C[C@H](C(=O)O)N1 (stereo partly specified) | inconclusive: 23.1 µM [rising, partial curve, poor fit] | 
CN1CCC=C(C(=O)N2c3ccccc3Sc3ccc(Cl)cc32)C1 | inconclusive: 29.1 µM [rising, single point] | 
Cc1cccc(-n2c(SCC(=O)N(C)C3CCS(=O)(=O)C3)nc3ccccc3c2=O)c1C (stereo unspecified) |  | inactive: -0.249%
CCOc1ccc(NS(=O)(=O)c2ccc(C(=O)N3CCN(C(C)=O)CC3)cc2)cc1 | inconclusive: 0.517 µM [cytotoxic, full curve] | 
